# According to publication PMC5725103:
# Sequences of proteins named here, by UniProt entry; tags and fusion partners are left off.
# UniProt P35222: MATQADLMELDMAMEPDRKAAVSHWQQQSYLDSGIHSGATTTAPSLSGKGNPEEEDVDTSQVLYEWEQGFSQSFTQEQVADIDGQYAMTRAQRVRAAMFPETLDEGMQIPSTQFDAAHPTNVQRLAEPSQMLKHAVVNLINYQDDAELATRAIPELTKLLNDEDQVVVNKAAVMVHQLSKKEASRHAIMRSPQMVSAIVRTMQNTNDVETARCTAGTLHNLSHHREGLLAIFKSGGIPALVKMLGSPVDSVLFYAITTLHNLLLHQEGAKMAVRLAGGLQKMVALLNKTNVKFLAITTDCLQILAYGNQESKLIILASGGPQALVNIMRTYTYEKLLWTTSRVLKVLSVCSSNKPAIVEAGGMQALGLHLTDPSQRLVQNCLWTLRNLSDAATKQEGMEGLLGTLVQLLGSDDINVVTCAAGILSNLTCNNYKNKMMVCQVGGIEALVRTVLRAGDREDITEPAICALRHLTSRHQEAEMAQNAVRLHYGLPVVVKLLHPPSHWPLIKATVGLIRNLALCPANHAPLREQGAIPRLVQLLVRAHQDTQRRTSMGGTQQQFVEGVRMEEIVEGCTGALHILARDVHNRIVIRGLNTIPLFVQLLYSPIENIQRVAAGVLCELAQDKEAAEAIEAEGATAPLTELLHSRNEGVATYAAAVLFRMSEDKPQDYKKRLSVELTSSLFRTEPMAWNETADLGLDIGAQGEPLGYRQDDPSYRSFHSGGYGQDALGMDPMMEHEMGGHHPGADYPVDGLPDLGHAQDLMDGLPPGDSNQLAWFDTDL
# Results are given in words; binding and its absence hold for the method and conditions named. In cells and extracts the contact can be indirect. Some entries that bind do so weakly or less than the wild type. For some assays here: Sequences can lack the tags named with a protein.
# What was measured:
# [1] = target: T1, 3×Flag-AQP1 fusion protein (human) (UniProt P29972); assay: co-IP; 3×Flag-AQP1/LN229 cell lysate in CO-IP lysis buffer (pH 7.4), immunopurified with anti-Flag M2 affinity gel, eluted with Flag peptides; 3×Flag-vector/LN229 as control; Western blot
# T1 sequence: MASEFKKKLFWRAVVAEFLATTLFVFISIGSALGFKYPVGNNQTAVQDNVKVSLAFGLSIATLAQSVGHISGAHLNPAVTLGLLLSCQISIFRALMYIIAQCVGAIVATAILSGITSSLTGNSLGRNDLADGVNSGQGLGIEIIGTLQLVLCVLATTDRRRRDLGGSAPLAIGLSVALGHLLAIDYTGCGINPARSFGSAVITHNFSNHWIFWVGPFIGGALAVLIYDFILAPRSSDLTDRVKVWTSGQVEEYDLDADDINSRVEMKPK
# [2] = target: T2, aquaporin1 (AQP1) (human (endogenous in astrocytoma tissue)) (UniProt P29972); assay: co-IP; astrocytoma tissue lysate in CO-IP lysis buffer (pH 7.4), precleared with Protein A, supernatant divided into three groups with different antibodies; Western blot
# T2 sequence: T1 sequence
substance,measurement,setting,value
β-catenin (from UniProt P35222 1-781),binding,[1],binds
same,binding,[2],binds
